Measured values taken from the supplement of paper PMC8728848.
This is one part of the list.

Tests used:
Test in all cases: glycan array binding signal (z-score within array); higher = stronger binding
Conditions in all cases: glycan notation: IUPAC condensed, linker removed
[1] = biological target: GalNAc(a1-3)GalNAc(b1-3)Gal(a1-4)Gal(b1-4)Glc
Procedure, shortened: (§1)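 Negative Z-scores can be read as non-binding. The Z-score is calculated within each array and then averaged across arrays of one protein sequence at different concentrations or buffers and across linkers. Arrays, 3228 in all, were curated from the Consortium for Functional Glycomics database and kept only where the protein sequence was available.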

[2] = biological target: GalNAc(a1-3)GalNAc(b1-3)Gal(a1-4)Gal(b1-4)GlcNAc
Procedure, shortened: as §1

GalNAc(b1-3)Gal = biological target: GalNAc(b1-3)Gal
Procedure, shortened: as §1

[3] = biological target: GalNAc(b1-3)Gal(a1-4)Gal(b1-4)GlcNAc
Procedure, shortened: as §1

[4] = biological target: GalNAc(b1-3)Gal(a1-4)Gal(b1-4)GlcNAc(b1-3)Gal(b1-4)Glc
Procedure, shortened: as §1

[5] = biological target: GalNAc(b1-3)Gal(a1-6)Gal(b1-4)Glc
Procedure, shortened: as §1

GalNAc(b1-3)GalNAc = biological target: GalNAc(b1-3)GalNAc
Procedure, shortened: as §1

GalNAc(b1-3)GlcNAc = biological target: GalNAc(b1-3)GlcNAc
Procedure, shortened: as §1

GalNAc(b1-4)Gal(b1-4)Glc = biological target: GalNAc(b1-4)Gal(b1-4)Glc
Procedure, shortened: as §1

GalNAc(b1-4)GlcNAc = biological target: GalNAc(b1-4)GlcNAc
Procedure, shortened: as §1

[6] = biological target: GalNAc(b1-4)GlcNAc(b1-2)Man
Procedure, shortened: as §1

[7] = biological target: GalNAc(b1-4)GlcNAc(b1-2)Man(a1-3)[GalNAc(b1-4)GlcNAc(b1-2)Man(a1-6)]Man(b1-4)GlcNAc(b1-4)GlcNAc
Procedure, shortened: as §1

[8] = biological target: GalNAc(b1-4)GlcNAc(b1-3)GalNAc(b1-4)GlcNAc
Procedure, shortened: as §1

GalNAc(b1-4)GlcNAc6S = biological target: GalNAc(b1-4)GlcNAc6S
Procedure, shortened: as §1

GalNAc(b1-6)GalNAc = biological target: GalNAc(b1-6)GalNAc
Procedure, shortened: as §1

GalNAc3S(b1-4)GlcNAc = biological target: GalNAc3S(b1-4)GlcNAc
Procedure, shortened: as §1

GalNAc3S(b1-4)GlcNAc3S = biological target: GalNAc3S(b1-4)GlcNAc3S
Procedure, shortened: as §1

[9] = biological target: GalNAc3S(b1-4)[Fuc(a1-3)]GlcNAc
Procedure, shortened: as §1

GalNAc4S6S(b1-4)GlcNAc = biological target: GalNAc4S6S(b1-4)GlcNAc
Procedure, shortened: as §1

GalNAc6S(b1-4)GlcNAc = biological target: GalNAc6S(b1-4)GlcNAc
Procedure, shortened: as §1

Glc(a1-4)Glc = biological target: Glc(a1-4)Glc
Procedure, shortened: as §1

[10] = biological target: Glc(a1-4)Glc(a1-4)Glc(a1-4)Glc
Procedure, shortened: as §1

Glc(a1-6)Glc(a1-6)Glc = biological target: Glc(a1-6)Glc(a1-6)Glc
Procedure, shortened: as §1

[11] = biological target: Glc(a1-6)Glc(a1-6)Glc(a1-6)Glc
Procedure, shortened: as §1

Glc(b1-4)Glc = biological target: Glc(b1-4)Glc
Procedure, shortened: as §1

Glc(b1-6)Glc = biological target: Glc(b1-6)Glc
Procedure, shortened: as §1

GlcA(b1-3)Gal = biological target: GlcA(b1-3)Gal
Procedure, shortened: as §1

GlcA(b1-3)GlcNAc = biological target: GlcA(b1-3)GlcNAc
Procedure, shortened: as §1

GlcA(b1-6)Gal = biological target: GlcA(b1-6)Gal
Procedure, shortened: as §1

[12] = biological target: GlcA3S(b1-3)Gal(b1-4)GlcNAc(b1-2)Man
Procedure, shortened: as §1

[13] = biological target: GlcA3S(b1-3)Gal(b1-4)GlcNAc(b1-3)Gal(b1-4)Glc
Procedure, shortened: as §1

[14] = biological target: GlcNAc(a1-3)Gal(b1-4)GlcNAc
Procedure, shortened: as §1

[15] = biological target: GlcNAc(a1-4)Gal(b1-3)GlcNAc
Procedure, shortened: as §1

[16] = biological target: GlcNAc(a1-4)Gal(b1-4)GalNAc
Procedure, shortened: as §1

[17] = biological target: GlcNAc(a1-4)Gal(b1-4)GlcNAc
Procedure, shortened: as §1

[18] = biological target: GlcNAc(a1-4)Gal(b1-4)GlcNAc(b1-3)Gal(b1-4)Glc
Procedure, shortened: as §1

[19] = biological target: GlcNAc(a1-4)Gal(b1-4)GlcNAc(b1-3)Gal(b1-4)GlcNAc
Procedure, shortened: as §1

[20] = biological target: GlcNAc(a1-4)Gal(b1-4)GlcNAc(b1-3)Gal(b1-4)GlcNAc(b1-3)Gal(b1-4)GlcNAc
Procedure, shortened: as §1

B1: Flo1 (Saccharomyces cerevisiae), P32768 (protein)
chain: SGATEACLPAGQRKSGMNINFYQYSLKDSSTYSNAAYMAYGYASKTKLGSVGGQTDISIDYNIPCVSSSGTFPCPQEDSYGNWGCKGMGACSNSQGIAYWSTDLFGFYTTPTNVTLEMTGYFLPPQTGSYTFKFATVDDSAILSVGGATAFNCCAQQQPPITSTNFTIDGIKPWGGSLPPNIEGTVYMYAGYYYPMKVVYSNAVSWGTLPISVTLPDGTTVSDDFEGYVYSFDDDLSQSNCTVPDPSNY
[1]
  glycan array binding signal (z-score): 0.141
[2]
  glycan array binding signal (z-score): -0.599
GalNAc(b1-3)Gal
  glycan array binding signal (z-score): -0.42
[3]
  glycan array binding signal (z-score): -0.281
[4]
  glycan array binding signal (z-score): -0.286
[5]
  glycan array binding signal (z-score): -0.629
GalNAc(b1-3)GalNAc
  glycan array binding signal (z-score): -0.28
GalNAc(b1-3)GlcNAc
  glycan array binding signal (z-score): -0.179
GalNAc(b1-4)Gal(b1-4)Glc
  glycan array binding signal (z-score): 3.53
GalNAc(b1-4)GlcNAc
  glycan array binding signal (z-score): -0.424
[6]
  glycan array binding signal (z-score): 0.122
[7]
  glycan array binding signal (z-score): 0.773
[8]
  glycan array binding signal (z-score): -0.719
GalNAc(b1-4)GlcNAc6S
  glycan array binding signal (z-score): -0.808
GalNAc(b1-6)GalNAc
  glycan array binding signal (z-score): -0.41
GalNAc3S(b1-4)GlcNAc
  glycan array binding signal (z-score): -0.358
GalNAc3S(b1-4)GlcNAc3S
  glycan array binding signal (z-score): -0.046
[9]
  glycan array binding signal (z-score): 0.347
GalNAc4S6S(b1-4)GlcNAc
  glycan array binding signal (z-score): 3.28
GalNAc6S(b1-4)GlcNAc
  glycan array binding signal (z-score): -0.47
Glc(a1-4)Glc
  glycan array binding signal (z-score): -0.567
[10]
  glycan array binding signal (z-score): 0.609
Glc(a1-6)Glc(a1-6)Glc
  glycan array binding signal (z-score): -0.407
[11]
  glycan array binding signal (z-score): -0.3
Glc(b1-4)Glc
  glycan array binding signal (z-score): -0.812
Glc(b1-6)Glc
  glycan array binding signal (z-score): -0.354
GlcA(b1-3)Gal
  glycan array binding signal (z-score): -0.302
GlcA(b1-3)GlcNAc
  glycan array binding signal (z-score): 2.06
GlcA(b1-6)Gal
  glycan array binding signal (z-score): -0.12
[12]
  glycan array binding signal (z-score): 0.219
[13]
  glycan array binding signal (z-score): 0.39
[14]
  glycan array binding signal (z-score): -0.432
[15]
  glycan array binding signal (z-score): 0.266
[16]
  glycan array binding signal (z-score): 0.83
[17]
  glycan array binding signal (z-score): -0.308
[18]
  glycan array binding signal (z-score): -0.109
[19]
  glycan array binding signal (z-score): -0.268
[20]
  glycan array binding signal (z-score): 0.101
